Results from article doi:10.1101/2020.11.17.385245.
These are yes or no findings as the source states them, for the method shown. In cells and extracts the contact can be indirect. A result given as binding can be weak or reduced; the word gives no strength.

Target: T1, endogenous Fe65 (A549 cells) (human (endogenous in A549)) (UniProt O00213)
T1 sequence: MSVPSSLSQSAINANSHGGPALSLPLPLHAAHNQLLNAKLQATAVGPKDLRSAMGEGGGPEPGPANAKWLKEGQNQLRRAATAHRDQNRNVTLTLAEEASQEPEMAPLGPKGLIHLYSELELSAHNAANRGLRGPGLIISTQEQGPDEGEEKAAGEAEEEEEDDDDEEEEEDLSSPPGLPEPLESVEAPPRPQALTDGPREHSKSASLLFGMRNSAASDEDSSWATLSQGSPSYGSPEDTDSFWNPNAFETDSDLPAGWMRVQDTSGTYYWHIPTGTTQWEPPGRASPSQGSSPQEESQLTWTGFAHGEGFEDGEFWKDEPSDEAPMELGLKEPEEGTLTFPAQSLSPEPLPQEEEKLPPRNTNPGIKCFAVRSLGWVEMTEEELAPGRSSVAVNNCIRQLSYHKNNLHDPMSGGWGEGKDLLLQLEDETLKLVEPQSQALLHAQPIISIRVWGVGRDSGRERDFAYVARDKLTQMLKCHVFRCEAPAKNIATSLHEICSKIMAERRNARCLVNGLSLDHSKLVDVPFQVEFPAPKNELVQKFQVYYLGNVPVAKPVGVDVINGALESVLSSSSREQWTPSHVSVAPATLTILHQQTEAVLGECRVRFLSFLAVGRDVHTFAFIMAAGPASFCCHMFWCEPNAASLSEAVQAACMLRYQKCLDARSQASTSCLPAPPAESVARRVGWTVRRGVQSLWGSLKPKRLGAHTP
Assay: co-IP

- binding: binds
Substance: endogenous PP1 (human (endogenous in A549)) (enzyme)
